The values below come from paper PMC6300602.

The chains behind the UniProt entries cited, without tags or fusion partners.
UniProt Q12522: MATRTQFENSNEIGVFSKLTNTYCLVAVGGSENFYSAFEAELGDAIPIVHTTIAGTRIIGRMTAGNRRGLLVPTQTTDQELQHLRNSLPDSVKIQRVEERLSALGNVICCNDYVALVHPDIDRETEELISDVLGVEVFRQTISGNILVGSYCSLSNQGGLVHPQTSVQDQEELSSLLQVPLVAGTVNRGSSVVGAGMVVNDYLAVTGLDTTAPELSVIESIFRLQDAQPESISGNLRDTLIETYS

In one assay the target is T1, Nop2 (S. cerevisiae) (UniProt P40991).
T1 sequence: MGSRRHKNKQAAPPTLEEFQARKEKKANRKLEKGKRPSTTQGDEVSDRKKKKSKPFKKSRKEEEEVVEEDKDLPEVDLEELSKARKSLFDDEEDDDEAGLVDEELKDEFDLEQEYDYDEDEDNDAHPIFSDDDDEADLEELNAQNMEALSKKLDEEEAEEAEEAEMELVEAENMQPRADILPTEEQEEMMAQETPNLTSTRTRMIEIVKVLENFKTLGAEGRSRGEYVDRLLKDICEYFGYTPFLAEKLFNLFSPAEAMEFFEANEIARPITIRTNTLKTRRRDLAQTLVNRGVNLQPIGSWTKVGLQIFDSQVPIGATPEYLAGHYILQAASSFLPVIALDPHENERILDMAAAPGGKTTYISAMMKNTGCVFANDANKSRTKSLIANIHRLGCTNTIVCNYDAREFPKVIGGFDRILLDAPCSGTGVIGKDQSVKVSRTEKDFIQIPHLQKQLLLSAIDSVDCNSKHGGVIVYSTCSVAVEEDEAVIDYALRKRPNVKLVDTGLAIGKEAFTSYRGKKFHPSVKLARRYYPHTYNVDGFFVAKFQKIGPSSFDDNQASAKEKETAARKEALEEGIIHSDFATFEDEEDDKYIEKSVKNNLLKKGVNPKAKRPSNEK
The experiment in a line: co-IP; Nop2 (Protein A-containing tag) retrieved with its pre-60S particles from yeast lysate on IgG sepharose, eluted with TEV protease, western blot; lysis buffer 50 mM Tris-HCl pH 7.8, 150 mM NaCl, 1.5 mM MgCl2, 0.1% NP-40, 5 mM beta-mercaptoethanol.

In assay [1] the target is T2, Kre35-TAP (S. cerevisiae) (UniProt P53145).
T2 sequence: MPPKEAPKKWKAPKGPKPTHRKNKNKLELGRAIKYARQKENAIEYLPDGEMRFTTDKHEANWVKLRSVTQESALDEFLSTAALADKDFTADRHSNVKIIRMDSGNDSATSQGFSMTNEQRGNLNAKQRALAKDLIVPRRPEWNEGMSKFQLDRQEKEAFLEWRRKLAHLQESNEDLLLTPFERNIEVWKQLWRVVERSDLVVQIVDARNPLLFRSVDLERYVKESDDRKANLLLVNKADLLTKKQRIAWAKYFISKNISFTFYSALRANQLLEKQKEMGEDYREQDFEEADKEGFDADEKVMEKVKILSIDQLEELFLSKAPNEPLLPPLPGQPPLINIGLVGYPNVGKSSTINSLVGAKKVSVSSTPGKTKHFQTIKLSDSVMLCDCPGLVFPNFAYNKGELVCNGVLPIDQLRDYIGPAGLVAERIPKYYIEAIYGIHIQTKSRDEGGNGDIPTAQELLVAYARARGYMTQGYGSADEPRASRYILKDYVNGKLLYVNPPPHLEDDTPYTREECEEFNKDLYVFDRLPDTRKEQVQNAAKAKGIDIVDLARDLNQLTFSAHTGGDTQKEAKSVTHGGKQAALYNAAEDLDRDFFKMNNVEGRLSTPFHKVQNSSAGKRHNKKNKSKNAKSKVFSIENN
The experiment in a line: co-IP; Kre35-TAP retrieved with cytoplasmic pre-60S particles from yeast lysate on IgG sepharose, eluted with TEV protease, western blot; cells expressing or depleted of Mak5 (doxycycline); particle amounts normalised to Rpl15.

In assay [2] the target is TAP-tagged Tif6 (S. cerevisiae) (UniProt Q12522). The experiment in a line: co-IP; Tif6-TAP retrieved with late pre-60S particles from yeast lysate on IgG sepharose, eluted with TEV protease, western blot; cells expressing (Gal) or depleted of (Glu) Spb4; particle amounts normalised to Tif6 and Rpl15.

No constants are given. Whether binding was seen depends on the method and setting. Binding seen in cells or lysates may run through a third protein. Some results given as binding are weak or reduced against the parent protein; the word gives no strength. For some of these results: Tags and fused reporters may be left off the sequences shown.

B1: Spb4 (enzyme, UniProt P25808 1-606)
chain: MSKSLEWDNLGFSLLPWIRTGLDVMGFETMTPVQASTIPMLAGNKDVVVDSVTGSGKTAAFVIPVLEKVVKEEANTSKFKKAHFHSLIIAPTRELSRQIESVVLSFLEHYPSDLFPIKCQLLVGTNEATVRDDVSNFLRNRPQILIGTPGRVLDFLQMPAVKTSACSMVVMDEADRLLDMSFIKDTEKILRLLPKQRRTGLFSATMRSAGSDIFKTGLRNPVRITVNSKNQAPSSLKLNYCVVNPAEKLQLLVSILNNYKFKKCIVYFPTCVSVSYFYSFIQYLGKRNILVNEVEIFSLHGKLQTSARTKTLTAFTDSLSNSVLFTTDVAARGIDIPDVDLVIQLDPPTNTDMFMHRCGRTGRANRVGKAITFLNEGREEDFIPFMQVKNVELEELDLEVKGITTNFYEDFRNWILEDRDRFDKGVKAYVAFIKYYSNHSATSIFRLQSLDYVGIAKLYGLFRLPRMPEITKYLATEKQEGIFPGNWLVDPPVNMDEYKYKDKKREKERQETLKNISLINDKKKLKSELKKKNLAWSDKTLTKERKLERKEKMSLKRKAIEEELKAEELDENAEEERIKEDWKEIVLQNKRKKVSSKAIQGNFDDL
Take B1: the binding entry in the assay with Nop2 (S. cerevisiae) is recorded as “binds”.

B2: Rpl10-GFP (protein, UniProt P41805 1-221)
chain: MARRPARCYRYQKNKPYPKSRYNRAVPDSKIRIYDLGKKKATVDEFPLCVHLVSNELEQLSSEALEAARICANKYMTTVSGRDAFHLRVRVHPFHVLRINKMLSCAGADRLQQGMRGAWGKPHGLAARVDIGQIIFSVRTKDSNKDVVVEGLRRARYKFPGQQKIILSKKWGFTNLDRPEYLKKREAGEVKDDGAFVKFLSKKGSLENNIREFPEYFAAQA
With B2, the binding entry in assay [1] is reported as “binds”.

B3: Mak5 (enzyme, UniProt P38112 1-773)
chain: MGKKRAPQKGKTVTKPQEIIVDESKLNWKPVDIPDTLDDFGGFYGLEEIDGVDVKVVDGKVTFVTKKDSKVLKDSNKEKVGDDQESVENESGSDSESELLEFKNLDDIKEGELSAASYSSSDEDEQGNIESSKLTDPSEDVDEDVDEDVLKENVFNKDINIDDISPVNLPEWTNLAPLSMTILQSLQNLNFLRPTEIQKKSIPVIMQGVDVMGKASTGSGKTLAYGIPIVEKLISNFSQKNKKPISLIFTPTRELAHQVTDHLKKICEPVLAKSQYSILSLTGGLSIQKQQRLLKYDNSGQIVIATPGRFLELLEKDNTLIKRFSKVNTLILDEADRLLQDGHFDEFEKIIKHLLVERRKNRENSEGSSKIWQTLIFSATFSIDLFDKLSSSRQVKDRRFKNNEDELNAVIQHLMSKIHFNSKPVIIDTNPESKVSSQIKESLIECPPLERDLYCYYFLTMFPGTTLIFCNAIDSVKKLTVYLNNLGIPAFQIHSSMTQKNRLKSLERFKQQSAKQKTINHSNPDSVQLSTVLIASDVAARGLDIPGVQHVIHYHLPRSTDIYIHRSGRTARAGSEGVSAMICSPQESMGPLRKLRKTLATKNSVSTDLNSRSTNRKPIKWQNTVPLLPIETDILSQLRERSRLAGELADHEIASNSLRKDDNWLKKAADELGIDVDSDEDDISKSNSDTFLLKNKNKKMQKTINKDKVKAMRATLNELLSVPIRKDRRQKYLTGGLVNLADNLVKKRGHNSIIGHEKTNALETLKKKKKRNN
Take B3: in the assay with Nop2 (S. cerevisiae), the binding entry is given as “binds”.

B4: Arx1-GFP (protein, UniProt Q03862 1-593)
chain: MALAISHEDTQILLKDKNILQESVLNKYRTAGQIAQTALKYVTSLINDSYHSKTTQRQLTVPELCLLTDSFILTRLEQYYKNKVNERGIAIPTTIDIDQISGGWCPEIDDTQNLLNWNKGKDSTFASSVTGTLRPGDLVKITLGVHIDGYTSEVSHTMVIYPVDETKPILQPTGPLLGGKADAVAAAHIAMETVVALLACALTPEKLPASLGGTSSGITGQLIRTIVDTIARSYNCGVVPGSRVRRIRRFLAGQNEGIVAEREYKGVVWTESHQEADLLSNTDAKDLTVVDRGQSTPFTNVSAIPSDDFVVQSGEVYLIDLKMASLEHCTKKGLVTLETVDSYTGKSHKAGELIARPGAYVRDFAQTHILKLKTSRQLLTKIDKQGVYPFKLSHLSSNFPFVHENEEELQSLKKDLKSFRLGMSEISNNYLCVESPIQIARWVPWDHILKATNPNGNLSYDATSTLTLPGHELPLPKLGVSAIKLKSLMNSTKESISLPVARECNTIVLCDSSVSTTDRPELLRLTGGSKTCQPSWIHSQHELNPQDSIVQGIFQLATLAKDKRFGLLLKETQPMKQKSVETSNGGVEETMKM
In the case of B4, in assay [2], the binding entry is on record as “binds”.
